At least one compound was matched to its structure with a doubt left.
Tested on: THP1 monocytes
Assay: MCP1 in THP1 monocytes stimulated with PMA
Format: cell-based, human
Conditions: 10 μM, 24 hours

CCCCC1=NC2(CCCC2)C(=O)N1CCc1ccc(OC(C)(C)C(=O)O)cc1 [Compound 3, 2-butyl-1-[2-(4-((1-carboxy-1,1-dimethylmethyl)oxy)phenyl)ethyl]-4-spirocyclopentyl-1H-imidazol-5(4H)-one]
expression of MCP1 by monocytes: significant reduction

Reference: patent US20100004159A1, “SUBSTITUTED IMIDAZOLONE DERIVATIVES, PREPARATIONS AND USES” (GENFIT, priority 2006, published 2010)
